Some of the results follow. Shown are side measurements of this screen, not its main read-out; they come without a call. Compounds called inactive in the main read-out are mostly missing here. Potencies come from curve fits of mixed quality, noted in brackets.
Assay: qHTS Assay for Modulators of Lamin A Splicing
Conditions: HeLa LMNA splicing GFP/RFP minigene ratio, 48 h
How it was run: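 S3 HeLa cells stably expressing lamin A-EGFP splicing minigene plus DsRed2, 600 cells/well, 48 h compound exposure at 37C. Laser-scanning cytometry; analysed as GFP (500-530 nm)/RFP (575-640 nm) total intensity ratio; 0.5% DMSO vehicle.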

[1] = measured here: RFP viability control channel
[2] = measured here: GFP splicing reporter channel

## O=C1CCCc2ccccc2N1Cc1ccc(Cl)cc1Cl
[1]
  AC50: 12.6 µM [rising, single point]

## CCn1c(=O)cc(SCC(=O)N2CCN(c3ccccc3OC)CC2)c2ccccc21
[1]
  AC50: 11.2 µM [rising, partial curve]

## Cc1ccc([N+](=O)[O-])c(OCCN2CCCCCC2)c1
[1]
  AC50: 12.6 µM [rising, single point]

## Cc1cccc(NC(=O)Cn2c(C)c(C#N)c3ccccc32)c1C
[2]
  AC50: 5.62 µM [falling, single point]
[1]
  AC50: 5.62 µM [falling, single point]

## CCCn1c(SCC(=O)c2cc(C)c(C)cc2C)n[nH]c1=O
[1]
  AC50: 35.5 µM [rising, single point]

## O=C(CNC(=O)c1cccc(F)c1)N/N=C/c1cccc([N+](=O)[O-])c1
[2]
  AC50: 6.31 µM [rising, single point]

## COc1cc2ncnc(NCc3ccccc3)c2cc1OC
[1]
  AC50: 22.4 µM [rising, single point]

## CCOc1ccc(NS(=O)(=O)c2cc(OCC(N)=O)c(C)cc2Cl)cc1
[2]
  AC50: 17.8 µM [rising, single point]
[1]
  AC50: 20 µM [rising, single point]

## O=C(CSc1ccc(Cl)cc1)Nc1ccccc1N1CCN(C(=O)c2ccccc2)CC1
[2]
  AC50: 10 µM [rising, partial curve, poor fit]

## O=S(=O)(c1ccc(Cl)c(C(F)(F)F)c1)N1CCN(c2ccccn2)CC1
[1]
  AC50: 0.0501 µM [falling, full curve, poor fit]

## CCOC(=O)N1CCC(NC(=S)Nc2ccc3nc(N4CCN(C)CC4)cc(C)c3c2)CC1
[2]
  AC50: 20 µM [falling, single point]

## CCOc1ccc(N2C(=O)C3C(C2=O)C3(c2ccccc2)c2ccccc2)cc1 (stereo not drawn)
[2]
  AC50: 22.4 µM [rising, single point]
[1]
  AC50: 22.4 µM [rising, single point]

## CCCCC(=O)NC(=S)Nc1cc([N+](=O)[O-])ccc1OC
[1]
  AC50: 22.4 µM [falling, partial curve, poor fit]

## Fc1ccc(N2CCN(C(c3cccs3)c3nnnn3C3CCCC3)CC2)cc1 (stereo not drawn)
[1]
  AC50: 35.5 µM [rising, single point]

## Cc1ccc(S(=O)(=O)N2CCN(c3nc(C)c4c(c3C#N)CC(C)(C)OC4)CC2)cc1
[2]
  AC50: 0.891 µM [rising, partial curve, poor fit]
[1]
  AC50: 35.5 µM [rising, single point]

## CCOc1ccc(C2C(=O)N(C3CCCCCC3)CC(=O)N2CCc2ccc(Cl)cc2)cc1OC (stereo not drawn)
[1]
  AC50: 4.47 µM [rising, partial curve, poor fit]

## COc1ccc(-c2cc(C(=O)N3CCCc4ccccc43)no2)cc1
[2]
  AC50: 11.2 µM [rising, partial curve]
[1]
  AC50: 7.08 µM [rising, partial curve]

## OCC1(Cc2ccccc2)CCCN(Cc2cn[nH]c2-c2ccccc2)C1 (stereo not drawn)
[2]
  AC50: 35.5 µM [falling, partial curve, poor fit]
[1]
  AC50: 35.5 µM [falling, partial curve, poor fit]

## C=CCOc1ccc2c(c1)C(=NO)c1cc(OCC=C)ccc1-2
[2]
  AC50: 20 µM [rising, single point]
[1]
  AC50: 12.6 µM [rising, partial curve]

## CCCN(CC1CC1)C(=S)Nc1ccc(Oc2ccccc2)cc1
[1]
  AC50: 35.5 µM [rising, single point]

## Cc1ccc(Nc2nc(-c3c(C)nc4ccccn34)cs2)cc1
[1]
  AC50: 0.141 µM [rising, full curve]

## COc1ccc(-c2noc(CN(C)S(=O)(=O)c3ccc(Cl)cc3)n2)cc1OC
[1]
  AC50: 35.5 µM [rising, single point]

## CCCOc1ccc(CN(CCC#N)C(=S)NC(=O)c2ccccc2)cc1
[1]
  AC50: 25.1 µM [rising, single point]

## Fc1ccc2[nH]c3c(NCCN4CCOCC4)ncnc3c2c1
[2]
  AC50: 11.2 µM [rising, partial curve, poor fit]

## CCc1cc2c3c(c(=O)oc2cc1OC)CCCC3
[2]
  AC50: 35.5 µM [rising, single point]

## CC(C)(C)Nc1c(-c2cccs2)nc2ccccn12
[2]
  AC50: 6.31 µM [rising, single point]

## O=[N+]([O-])c1cc(-c2n[nH]c(-c3ccccc3)n2)cc([N+](=O)[O-])c1
[1]
  AC50: 3.55 µM [rising, single point]

## Cc1cc(C(=O)OCC(=O)Nc2cccnc2Cl)c2ccccc2n1
[1]
  AC50: 0.0562 µM [falling, full curve, poor fit]

## Cc1ccc(/C(N)=N/OC(=O)Cc2cccc3ccccc23)cc1
[1]
  AC50: 35.5 µM [rising, single point]

## CCN(CC)c1ccc(C2C(C(=O)OC(C)C)C(=O)CC(C)(O)C2C(=O)OC(C)C)cc1 (stereo not drawn)
[1]
  AC50: 31.6 µM [rising, single point]

## COc1cc(CSc2nnnn2-c2ccc(C)cc2)cc(OC)c1OC
[1]
  AC50: 3.16 µM [rising, full curve]

## Cc1cccc(CNc2nc(-c3cccnc3)nc3ccccc23)c1
[1]
  AC50: 22.4 µM [falling, partial curve, poor fit]

## c1ccc(C(Cc2nc(-c3ccncc3)no2)c2ccccc2)cc1
[1]
  AC50: 3.55 µM [rising, full curve]

## Fc1ccccc1Nc1ncnc2c1nc1n2CCCCC1
[2]
  AC50: 0.794 µM [falling, full curve]

## Cc1cccc(CCNC(=O)c2c[nH]c3ccc(S(=O)(=O)Nc4ccccc4F)cc3c2=O)c1
[1]
  AC50: 11.2 µM [falling, partial curve, poor fit]

## CC(C)c1ccc(S(=O)(=O)c2cc3cc(Br)ccc3oc2=O)cc1
[1]
  AC50: 5.62 µM [rising, single point]

## O=c1cc(-c2ccccc2Cl)oc2ccc([N+](=O)[O-])c(O)c12
[1]
  AC50: 1.78 µM [rising, full curve]

## COc1cccc(-c2nnc3sc(CN4CCCCC4)cn23)c1
[1]
  AC50: 1.78 µM [rising, full curve]

## CS(=O)(=O)Nc1cccc(-c2nccc(Nc3ccc(F)cc3)n2)c1
[2]
  AC50: 4.47 µM [falling, partial curve, poor fit]
[1]
  AC50: 6.31 µM [falling, partial curve, poor fit]

## CCOCC(=O)Nc1cc(C(=O)Nc2ccc(F)cc2)ccc1Cl
[2]
  AC50: 0.708 µM [falling, single point]

## CCN(c1ccccc1)S(=O)(=O)c1cc([N+](=O)[O-])ccc1N
[1]
  AC50: 20 µM [rising, single point]

## Cc1ccccc1-n1c(C)cc(/C=C(\C#N)C(=O)NCC2CCCO2)c1C (stereo not drawn)
[1]
  AC50: 12.6 µM [rising, single point]

## c1ccc(CNc2ncnc3ccc(-c4ccc5c(c4)OCO5)cc23)cc1
[2]
  AC50: 35.5 µM [falling, single point]
[1]
  AC50: 35.5 µM [falling, single point]

## COc1ccc(C(=O)Nc2cccc(C)c2)cc1S(=O)(=O)N1CCOCC1
[1]
  AC50: 14.1 µM [rising, single point]

## O=C(O)c1cc(=O)c2c(OCC(O)COc3cccc4oc(C(=O)O)cc(=O)c34)cccc2o1
[1]
  AC50: 0.708 µM [falling, partial curve, poor fit]

## NC(=S)Cc1nc(-c2ccccc2)cs1
[1]
  AC50: 12.6 µM [rising, partial curve, poor fit]

## Fc1ccc(-n2ncc3c(N4CCN(c5ccccc5F)CC4)ncnc32)cc1
[2]
  AC50: 0.00316 µM [falling, full curve, poor fit]

## N#CCCn1nc(-c2ccc(Br)cc2)cc1Nc1ccccc1NC(=O)C(F)(F)F
[2]
  AC50: 14.1 µM [rising, partial curve]
[1]
  AC50: 10 µM [rising, partial curve]

## CNCCC(Oc1ccccc1C)c1ccccc1 (stereo not drawn)
[2]
  AC50: 0.0141 µM [falling, full curve, poor fit]

## COC(=O)CCCC1=CC2=CC(=O)C(C)(OC(=O)c3cccs3)C(=O)C2=CN1Cc1ccc2c(c1)OCO2 (stereo not drawn)
[1]
  AC50: 0.000891 µM [falling, full curve, poor fit]

## CCN(CC)S(=O)(=O)c1cc(C(=O)N2CCc3ccccc32)ccc1Cl
[1]
  AC50: 12.6 µM [rising, partial curve]

## CCC(C)c1ccc(NC(=S)NCc2ccccn2)cc1 (stereo not drawn)
[1]
  AC50: 3.16 µM [falling, partial curve]

## Cc1ccc(C2c3[nH]c4ccccc4c3CCN2C(=O)CCc2ccccc2)cc1 (stereo not drawn)
[1]
  AC50: 14.1 µM [rising, partial curve, poor fit]

## CCc1ccc(NC(=O)CS(=O)CC(=O)NCC2OCCc3ccccc32)cc1 (stereo not drawn)
[2]
  AC50: 35.5 µM [rising, single point]
[1]
  AC50: 35.5 µM [rising, single point]

## CC(C)(C)CC(=O)Nc1cc(S(=O)(=O)N2CCCCCC2)ccc1Cl
[2]
  AC50: 11.2 µM [rising, partial curve, poor fit]
[1]
  AC50: 25.1 µM [rising, single point]

## Cc1nn(CC2CC2)c(=O)n1-c1ccccc1
[2]
  AC50: 0.00447 µM [rising, full curve, poor fit]

## CCOC(=O)c1cnc(SCC(=O)Nc2cccc(OC)c2)nc1N
[1]
  AC50: 35.5 µM [rising, single point]

## O=S(c1ccc2ccccc2c1)c1cnns1 (stereo not drawn)
[2]
  AC50: 1.12 µM [falling, partial curve]
[1]
  AC50: 28.2 µM [falling, partial curve]

## Cc1onc(-c2ccccc2Cl)c1C(=O)NC(=S)Nc1ccccc1C(N)=O
[2]
  AC50: 1.41 µM [rising, partial curve]

## Cc1ccc(S(=O)(=O)N2CCN(Cc3nc4sc(C)c(C)c4c(=O)[nH]3)CC2)cc1
[1]
  AC50: 0.0355 µM [rising, partial curve, poor fit]
